# Experimental data published in PubChem BioAssay AID504467 (National Center for Advancing Translational Sciences (NCATS), 2011).
# Screen size: about 330,000 compounds; about 7,700 (2.3%) were called active. The shares of active, inactive and inconclusive entries below differ from those in the screen. The call rests on the fitted dose curve; in most records, active means well fitted inhibition curve with a large enough effect; inconclusive means small, poorly fitted or top-dose-only effect, or effect the other way; inactive means flat fitted curve, though single readings scatter. Where the call is inconclusive, the potency comes from a doubtful curve fit.
# Experiment: qHTS screen for small molecules that inhibit ELG1-dependent DNA repair in human embryonic kidney (HEK293T) cells expressing luciferase-tagged ELG1; further: nearly all actives have a fitted effect of over 55% in size
# Settings: HEK293T ELG1-luciferase reporter, luminescence, 16 h, DNA damage induced by 5-fluorouridine; series mostly up to 46.1 µM
# Summary of the method: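 In this reporter screen, reduction of luminescence relative to DMSO vehicle indicated activity. Compounds and 5-fluorouridine were added together to 2,000 cells per well, incubated for 16 hr at 37 °C, then developed with ONE-Glo.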
# Potency means the concentration at half of the fitted maximal effect.
row,SMILES,Potency
1,Nc1ccc(C(=O)Oc2ccc([N+](=O)[O-])cc2)cc1,"inconclusive: 23.1 µM [activator, partial curve]"
2,COc1cc(C=O)ccc1OCC(=O)NC(C)(C)C,"inconclusive: 9.2 µM [activator, partial curve, poor fit]"
3,Cc1ccc(NS(=O)(=O)c2cn(C)c(=O)n(C)c2=O)c(C)c1,"inconclusive: 29.1 µM [activator, single point]"
4,CN(C)c1ccc(C2N(c3ccc(Cl)cc3)C(=O)C3CCCN32)cc1 (stereo not given),"inconclusive: 23.1 µM [activator, partial curve, poor fit]"
5,Cc1ccc(OCC(=O)NCCCNC(=O)c2ccco2)cc1,inactive
6,O=C(CNC(=O)c1ccncc1)N/N=C/c1ccccn1,inactive
7,CCCNC(=O)c1ccc2c(=O)c(O)c(-c3ccc(C)cc3)[nH]c2c1,"inconclusive: 18.3 µM [inhibitor, single point]"
8,CC(=O)N1CCc2cc(S(=O)(=O)CCC(=O)NCc3ccc(F)cc3)ccc21,inactive
9,CN(C)CCNc1ccc(-c2n[nH]c(=O)c3ccccc23)cc1[N+](=O)[O-],"inconclusive: 23.1 µM [activator, partial curve, poor fit]"
10,NC(C(=O)O)C1CC(Cl)=NO1 (stereo not given),inactive
11,COc1ccc(-c2c(C#Cc3ccsc3)c3cc(Br)ccc3n2C)cc1,inactive
12,CCCCn1c(/N=C/c2ccc3c(c2)OCO3)nc2ccccc21,inactive
13,CN(CCC#N)C(=O)COC(=O)c1ccc(Cl)c(S(N)(=O)=O)c1,inactive
14,Cc1ccc(CC2CC(=O)N(c3cc(Cl)ccn3)C2=O)cc1 (stereo not given),"inconclusive: 0.231 µM [activator, partial curve, poor fit]"
15,Cc1cc(CNC(=O)CC2C(=O)NCCN2Cc2ccccc2)nn1C (stereo not given),"inconclusive: 25.9 µM [activator, partial curve, poor fit]"
16,Cc1[nH]c2ccccc2c1/C=N/Nc1nc(N2CCCCC2)nc(N2CCCCC2)n1,inactive
17,O=C(NCc1ccccc1)c1nc(-c2cccs2)no1,"inconclusive: 25.9 µM [activator, single point]"
18,COc1ccc(NC(=O)N(C)C[C@H]2Oc3ccc(NS(=O)(=O)c4ccc(F)cc4)cc3C(=O)N([C@H](C)CO)C[C@@H]2C)cc1,"inconclusive: 13 µM [activator, partial curve, poor fit]"
19,COc1cc(C(=O)Nc2ccc(S(=O)(=O)Nc3cc(C)nc(C)n3)cc2)cc(OC)c1OC,"inconclusive: 29.1 µM [activator, single point]"
20,Cc1cc(C)c2nc(N3CCC(C(=O)NCCCN4CC(C)CC(C)C4)CC3)sc2c1 (stereo not given),"inconclusive: 20.6 µM [activator, partial curve]"
21,CC1(C)CC(=O)C=C(Nc2ccc(Br)cc2F)C1,"inconclusive: 17.8 µM [inhibitor, partial curve]"
22,COc1cccc(NC(=O)c2ccncc2)c1,"inconclusive: 29.1 µM [activator, partial curve, poor fit]"
23,COc1cc(S(=O)(=O)NC2CCSc3ccccc32)ccc1NC(C)=O (stereo not given),inactive
24,Cc1cccc(NC(=O)C2CCCN(S(=O)(=O)c3cccc4nsnc34)C2)n1 (stereo not given),"inconclusive: 18.4 µM [inhibitor, single point]"

# Entries from the list above that contain a thiophene ring, fused or not:
row,SMILES,Potency
11,COc1ccc(-c2c(C#Cc3ccsc3)c3cc(Br)ccc3n2C)cc1,inactive
17,O=C(NCc1ccccc1)c1nc(-c2cccs2)no1,"inconclusive: 25.9 µM [activator, single point]"

# The results go on.

row,SMILES,Potency
1,NC(N)=N/N=C/c1ccc(OS(=O)(=O)c2ccccc2)cc1,"inconclusive: 18.3 µM [inhibitor, partial curve, poor fit]"
2,CCC[n+]1cn(/C(C(=S)Nc2cccc(Cl)c2C)=C(/[O-])c2ccc(OC)c(OC)c2)c2ccccc21,"inconclusive: 20.6 µM [activator, partial curve, poor fit]"
3,CCCc1nc2sc3c(SCC(=O)NCc4ccco4)ncnc3c2c2c1CCC2,"inconclusive: 29.1 µM [inhibitor, single point]"
4,CCCC(=O)Nc1ccc(C(=O)NN2C(=O)c3ccccc3C2=O)cc1,"inconclusive: 8.2 µM [activator, partial curve, poor fit]"
5,O=C(N/N=C/c1c(O)ccc2ccccc12)c1ccc(CO)nc1,"inconclusive: 29.1 µM [inhibitor, single point]"
6,O=C(Oc1c(CN2CCOCC2)cc(Cl)c2cccnc12)c1ccccc1,active: 23.1 µM
7,Cc1c(Cc2ccc3c(c2)OCO3)sc(NC(=O)C2CC2)c1C(N)=O,"inconclusive: 20.6 µM [inhibitor, single point]"
8,N#Cc1c(-c2ccc(F)cc2)cc(-c2cccnc2)nc1N,inactive
9,Cc1ccc(C)c(S(=O)(=O)N2CCN(C(=O)[C@H](C)N3C(=O)C4CC=CCC4C3=O)CC2)c1 (stereo not given in full),inactive
10,Cc1cc(Cl)ccc1OCC(=O)NCCCCc1ccccc1,"inconclusive: 20.6 µM [activator, partial curve, poor fit]"
11,CCn1ncc(C2=NOC(C(=O)NCc3ccccc3)C2)c1C (stereo not given),"inconclusive: 18.4 µM [activator, partial curve, poor fit]"
12,CC(C)(C)NC(=O)Cn1nnc(-c2cccs2)n1,"inconclusive: 18.4 µM [activator, single point]"
13,O=C(Cc1ccccc1)Nc1ccc(N2CCOCC2)cc1N1CCOCC1,inactive
14,CN(C)c1ccc(NC(=O)c2ccc3c(c2)nnn3C)cc1,"inconclusive: 20.6 µM [activator, partial curve]"
15,Cc1ccn2c(NC3CCCCC3)c(-c3cccc(-c4cccc(Cl)c4)c3)nc2c1,"inconclusive: 11.2 µM [inhibitor, single point]"
16,COc1ccc(-c2csc(NC(=O)C3CCCO3)n2)cc1 (stereo not given),inactive
17,COc1cc(OC)c(OC)cc1NC(=O)CC1COc2ccccc2O1 (stereo not given),"inconclusive: 25.9 µM [inhibitor, single point]"
18,Cc1c(C(=O)Nc2cccnc2)oc2ccc(Br)cc12,"inconclusive: 5.62 µM [activator, partial curve, poor fit]"
19,O=C(N/N=C(\Cc1ncc[nH]1)c1ccccc1)c1ccncc1,"inconclusive: 23.1 µM [inhibitor, single point]"
20,O=C(O)c1ccc(NC(=O)c2cn(-c3ccccc3)nc2-c2ccc(F)cc2)cc1,"inconclusive: 18.3 µM [activator, partial curve, poor fit]"
21,CC(C)CN1C(=O)c2ccc(NC(=O)c3ccco3)cc2C1=O,"inconclusive: 8.2 µM [activator, partial curve]"
22,O=C(/C=C/c1ccco1)NCC1OCCc2ccccc21 (stereo not given),inactive
23,Cc1cc(Cl)ccc1OCCCC(=O)NC1CCN(C)CC1,inactive
24,O=C(NCc1ccccc1Cl)C1CCN(S(=O)(=O)c2cccs2)CC1,inactive

row,SMILES,Potency
1,Cn1nnnc1Sc1ncnc2scc(-c3ccc[nH]3)c12,"inconclusive: 13 µM [inhibitor, partial curve, poor fit]"
2,COC(=O)c1ccccc1NC(=S)NC(=O)C1CC1,inactive
3,Cc1ccc(C(=O)NC2CCS(=O)(=O)C2)cc1S(=O)(=O)N1CCCC1 (stereo not given),inactive
4,Nc1ccc2c(c1)sc1ccccc12,"inconclusive: 20.6 µM [activator, partial curve]"
5,Cc1cccc(OCc2nc(-c3nonc3N)no2)c1C,"inconclusive: 13 µM [activator, partial curve]"
6,CCOC(=O)Cc1cc(=O)n2[nH]c(C)c(-c3ccc(OC)cc3)c2n1,inactive
7,O=C(c1ccc(Br)cc1)c1cc([N+](=O)[O-])ccc1N1CCCCC1,"inconclusive: 31.6 µM [activator, single point]"
8,Cc1ccccc1-n1c(SCC(=O)Nc2c(C)cccc2C)nc(O)cc1=O,inactive
9,Cc1cccc(N2CCN(S(=O)(=O)c3ccc4c(c3)NC(=O)C(C)S4)CC2)c1C (stereo not given),inactive
10,CCOC(=O)c1c(NC(=O)COC(=O)c2ccc(Cl)nc2)sc(C(=O)N(C)C)c1C,inactive
11,O=C1NC2(CCCCC2)C(=O)N1c1cccc(Cl)c1,inactive
12,Cc1cc(C)n(-c2nc3c(c(=O)[nH]c(=O)n3C)n2CCc2ccccc2)n1,"inconclusive: 0.92 µM [inhibitor, full curve]"
13,Oc1cccc(Nc2c3ccccc3nc3ccccc23)c1,"inconclusive: 29.1 µM [inhibitor, partial curve, poor fit]"
14,COc1ccc(CCn2c(N)c(C(=O)NCc3ccco3)c3nc4ccccc4nc32)cc1,active: 20.6 µM
15,O=c1[nH]cnc2c1sc1nc3c(c(-c4ccc(Cl)cc4)c12)CCC3,"inconclusive: 29.1 µM [inhibitor, single point]"
16,Cc1cc2nc3c(=O)[nH]c(=S)[nH]c3nc2cc1NC(=O)C(F)(F)F,"inconclusive: 23.1 µM [activator, single point]"
17,CC(C)N(Cc1ccccc1)C(=O)COC(=O)C1CCN(S(=O)(=O)c2ccc3c(c2)OCCO3)CC1,inactive
18,CN(Cc1ccccc1)S(=O)(=O)c1ccc(S(=O)(=O)N(Cc2ccc(F)cc2)C2CCCC2)cc1,"inconclusive: 3.66 µM [inhibitor, full curve]"
19,CCOc1ccc(N2CC(C(=O)NCCN3C(=O)S/C(=C\c4ccc(OC)cc4)C3=O)CC2=O)cc1 (stereo not given),"inconclusive: 23.1 µM [inhibitor, single point]"
20,CCn1nc(C)c(/C=C2\CCCC3=C2OC(N)=C(C#N)C3c2c(C)nn(CC)c2C)c1C (stereo not given),"inconclusive: 10.3 µM [inhibitor, partial curve]"
21,CC(=O)Nc1ccc2c(c1)N(C(=O)CN(C)C)c1ccccc1CC2,"inconclusive: 32.6 µM [activator, partial curve, poor fit]"
22,O=C(Cc1cccc2ccccc12)N/N=C/c1ccc(OC(=O)/C=C/c2ccco2)cc1,"inconclusive: 16.4 µM [inhibitor, partial curve, poor fit]"
